Measurements as given in the supplement of paper PMC8007513.
The list shows a part of the results. Many values rest on one well or one pass, so single values are uncertain.

system: Saccharomyces cerevisiae BY4743; experiment: growth (OD600) relative to untreated control; higher = less growth inhibition; conditions: compound concentration: 133 uM; 20 h
Method: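 NMCCC compounds (133 uM, no IPBC) tested alone against Saccharomyces cerevisiae BY4743 in YPD, 96-well plates, starting OD600 ~0.1. Growth was read as OD600 at 20 h and expressed as % of the untreated control. Single pass.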

Row | SMILES | growth [%]
1 | COc1nc(NS(=O)(=O)c2ccc(C)cc2)nc(C)c1Cl | 98.7
2 | CN(C)c1cccc(C(=O)OCc2cn3cc(Cl)ccc3n2)c1 | 71.6
3 | CCOC(=O)c1sc(NC(=O)CSc2n[nH]c(CC(C)C)n2)nc1C | 76.9
4 | CCOC(=O)C(Cc1ccccc1)NS(=O)(=O)c1ccc(NC(C)=O)cc1 (stereo not drawn) | 103
5 | Cc1ccc(C(=O)Nc2ccc(-c3nccs3)cc2)s1 | 91.4
6 | Cc1c(C(=O)NC(C)CCc2ccccc2)oc2c1C(=O)CCC2 (stereo not drawn) | 104
7 | CC(C)C1O\C(=N/C1=O)NC(=O)NC(C)(C)C2=CC=CC(=C2)C(C)=C (stereo not drawn) | 108
8 | COC(=O)CSc1nc(-c2ccc(F)cc2)cc(C(F)(F)F)n1 | 85.7
9 | COc1cc(C(=O)Nc2ccccc2OCC2CCCO2)cc(OC)c1OC (stereo not drawn) | 99.7
10 | Cc1ccc(C)c(OCC(=O)N2CCc3ccccc3C2)c1 | 89.7
11 | O=C(CCSc1nc(-c2ccco2)cc(C(F)(F)F)n1)NCCN1CCOCC1 | 90.3
12 | CC(C)CCNC(=O)c1cnn2c(C(F)(F)F)cc(-c3cccs3)nc12 | 94.2
13 | Cc1ccc(-c2cc(NC(=O)CNC(C)c3ccc(F)cc3F)on2)cc1 (stereo not drawn) | 97.7
14 | COc1ccc(Cl)cc1C(=O)NCCc1ccc(-n2cccn2)cc1 | 104
15 | CC(C)C\C1=N\N/2C(=O)\C=C(COC3=CC=C(NC(C)=O)C=C3)/N=C2S1 | 104
16 | COC1=CC=C(C=C1OC)C(=O)N2CCN(CC2)C/3=C(\Cl)C(=O)N(C)/N=C3 | 104
17 | CCOC(=O)Cn1c(-c2cnn(CC)c2)nc2ccccc21 | 104
18 | CC1C2CC(CC(C)(C)C2)N1C/3=C(\Cl)C(=O)N(CC(O)=O)/N=C3 (stereo not drawn) | 98.7
19 | CC1Cc2cc(S(N)(=O)=O)ccc2N1Cc1cccc(C(F)(F)F)c1 (stereo not drawn) | 85.7

Some of the entries so far, comma-delimited:
Row,SMILES,growth [%]
5,Cc1ccc(C(=O)Nc2ccc(-c3nccs3)cc2)s1,91.4
6,Cc1c(C(=O)NC(C)CCc2ccccc2)oc2c1C(=O)CCC2 (stereo not drawn),104
7,CC(C)C1O\C(=N/C1=O)NC(=O)NC(C)(C)C2=CC=CC(=C2)C(C)=C (stereo not drawn),108
8,COC(=O)CSc1nc(-c2ccc(F)cc2)cc(C(F)(F)F)n1,85.7
9,COc1cc(C(=O)Nc2ccccc2OCC2CCCO2)cc(OC)c1OC (stereo not drawn),99.7
10,Cc1ccc(C)c(OCC(=O)N2CCc3ccccc3C2)c1,89.7
11,O=C(CCSc1nc(-c2ccco2)cc(C(F)(F)F)n1)NCCN1CCOCC1,90.3
12,CC(C)CCNC(=O)c1cnn2c(C(F)(F)F)cc(-c3cccs3)nc12,94.2
13,Cc1ccc(-c2cc(NC(=O)CNC(C)c3ccc(F)cc3F)on2)cc1 (stereo not drawn),97.7
14,COc1ccc(Cl)cc1C(=O)NCCc1ccc(-n2cccn2)cc1,104
15,CC(C)C\C1=N\N/2C(=O)\C=C(COC3=CC=C(NC(C)=O)C=C3)/N=C2S1,104

The list continues.

Row | SMILES | growth [%]
20 | Cc1cc(N2CCCC2)ccc1NC(=O)C(NS(=O)(=O)/C=C/c1ccccc1)C(C)C (stereo not drawn) | 105
21 | Cc1cc(C)c(NC(=O)CCCN(c2ccc3c(c2)OCO3)S(C)(=O)=O)c(C)c1 | 115
22 | CCO/C(O)=C1/C(CC)=Nc2ccccc2N=C1NS(=O)(=O)c1cccc(C(C)=O)c1 | 101
23 | Cc1ccc(S(=O)(=O)CCc2nc(S(=O)(=O)c3ccc(C)cc3)c(N(C)C)o2)cc1 | 101
24 | Cc1nc(-c2ccccc2)sc1C(=O)OC(C)C(=O)N1CCNC1=O (stereo not drawn) | 101
25 | Cc1nc2ccc(NC(=O)CCn3cncn3)cc2s1 | 92.6
26 | COC(=O)CNC(=O)CSc1nc(C2CC2)n(-c2ccccc2)n1 | 84.1
27 | CC(C)CCNc1c2c(nc3nncn13)CCC2 | 111
28 | CCN(CCNC(=O)CN1\N=C/C2=C(SC=C2)C1=O)C3=CC=CC=C3 | 91.6
29 | CCOC(=O)C(CC)N1\C=N/C2=C(C=N[N]2C3=CC=C(Cl)C=C3)C1=O (stereo not drawn) | 102
30 | CCOC(=O)c1c(-c2ccc(Cl)cc2)nn2c1NCN(CCOC)C2 | 109
31 | CCCCc1ccc(CC(=O)Nc2ccc3c(c2)NC(=O)C(C)O3)cc1 (stereo not drawn) | 107
32 | COc1ccc(N(CC(=O)NCC2CCCO2)S(=O)(=O)c2c(C)noc2C)cc1 (stereo not drawn) | 105
33 | NC(=O)c1sc2nc(-c3cccs3)ccc2c1N | 96
34 | Cc1noc(C)c1CSCC(=O)OCC(=O)N1CCN(c2ccccc2)CC1 | 96.6
35 | CCCN(Cc1cccs1)C(=O)Nc1cc(Cl)ccc1OC | 92.8
36 | Nc1cc(C2CC2)nn1Cc1ccccc1 | 101
37 | Cc1ccc(CNn2nnnc2N)s1 | 92.6
38 | Cc1cc(C)c2c(n1)nn1c(NCC(C)C)cc(C)nc21 | 81.7
